Our source for the z-score values is PubChem BioAssay AID1508600 (Functional Genomics Laboratory (NCATS/FGL), 2020).

In all, about 53,000 sequences went through this assay and about 3,700 (7%) were called active.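 The calls were made as follows: active = gene knockdowns whose robust z-score for IL-1 alpha signal is at least 2 or at most -2, so actives lie on both sides; inactive = the rest.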 This is one part of the list.

A short description of this assay: Components of the Cytosolic LPS Sensing Pathway: Gene Identification via Genome-wide siRNA Screen.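 Also: robust z of the log signal after scaling to non-targeting control siRNA wells of the plate.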 Conditions: RAW264.7 macrophages, IL-1a HTRF, actives lie on both sides, screened at 100 nM (by protocol), cells primed 5 h with Pam3CSK4 first. An outline of the steps:
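Mouse macrophage line RAW264.7 is transfected with siRNA (100 nM final), grown 48h, primed with TLR ligand Pam3CSK4 5 h and given intracellular LipidA 24 h. IL-1a in supernatant is read by HTRF and viability by luminescence.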
With CGGUUACUUGCUCUCCUCCTT against Tssk5, the z-score is inactive: -0.956.
In the case of CCAUGAAAAACUUAGUGUGTT against Trim37 it was inactive: 0.682; in that of GGAACCAGUGAUCUUCAAATT against Zim1, inactive: -0.357; in that of GCCAUACCUCACGAGAGCUTT against Mcpt8, inactive: -1.87.
On to GGUUUGUCAAUGAUACUAATT against Adam17, for which the z-score was active: 2.49.
In the case of GGCUAUUUAUAAGUCCAGUTT against Uso1, the z-score is inactive: -0.307.
Turning to CGAGAUAUAUAGUUGGAUCTT against Cpa5, the z-score is inactive: 0.0901.
With CCUGGGAUAUACAAAAAGATT against Srrm3, the z-score is inactive: -0.874.
The result for GGGCAUCCUGGAUCAUCAUTT against Nlrp6 reads inactive: -1.64; that for GGUACUGGAAAUCUGUAUGTT against Nlgn1, inactive: -0.332; that for CGAAAGAUGUCUACGUGCCTT against Mrpl27, inactive: 1.71.
As for GGACGAUUUUCCUCAAUAUTT against Pcdhgc4, the z-score was inactive: -0.403.
For CCAUCAAUGGGAUAACUAATT against Rnaseh1, the z-score is inactive: -0.219.
On to CGGCAGAUGCAUUCAGGAUTT against Ccdc125, for which the z-score was inactive: 0.0172.
For the sequence GGGUUUCUUGAUUCUGACCTT against Ccl5, the z-score is active: -2.33.
The result for GGAAGAUAUUGGUAAAAACTT against Uba1y reads inactive: 0.584; that for GGGCCUGCUCUCUUUUCUGTT against Mfsd14b, inactive: 1.18.
For the sequence GGCCGAGGAGAAAUUCAUCTT against Mapk8ip3, the z-score is inactive: 0.344.
With GCGAUAUGAAUAUCAUCUUTT against Fbxo22, the z-score is inactive: -0.0727.
As to GCAGGGCUUUAUAGGUUGUTT against Pigu, the z-score is inactive: 0.266.
In the case of GGCUGAGGUUCGAGUGUAUTT against Rps6ka4, the z-score was active: 3.51.
The result for GUCUGAGCGACUGUCUCCATT against Mef2b reads active: -2.17; that for GGCAAAAAUUUUUUCAUGCTT against Abcb4, inactive: -0.47.
On to GGGAUCGAUCAAUCAUAACTT against Tfap2c, for which the z-score is inactive: 0.72.
On to “GGCAUGAGGGCAAAUGAAATT against 4933434M16Rik”, for which the z-score is inactive: -0.707.
As to AGACUCGUACACGCAGGAATT against Ggn, the z-score is inactive: 0.882.
In the case of CCCUCAGCAGCUCCAACAATT against Olfr739, the z-score is inactive: -0.125.
On to GGUUUUUGUCACUAUAAGCTT against Trim52, for which the z-score is inactive: 0.638.
For GGCAGAGAAAUGGGCAAUGTT against Hcar1, the z-score is active: 2.12.
Consider GGUAAAAUUGUCCAAGGAATT against Clec2i, for which the z-score was inactive: -0.109.
The result for GGGCUUUGAGAGCAUCUUATT against Nod2 reads inactive: -0.731.
For GGGCUCUUUUUGGCGAAUATT against Foxk1, the z-score was inactive: -0.402.
Consider GCAUCAGCGUAAAAUGAUUTT against Sall3, for which the z-score was inactive: -0.469.
On to GGACGACCUCAUUCUUUUUTT against Cfd, for which the z-score was inactive: -0.479.
The result for GGCUAUGAGGCAAGUCAACTT against Zfp830 reads inactive: -0.392; that for CGGAGUGUGAGCCAUUUUGTT against Pgap4, inactive: -0.915; that for GGGUGACACCUUGUCCAACTT against Abcc6, inactive: -1.13.
Turning to GGAUUUGGACUCAAAACUATT against Pkig, the z-score is inactive: -0.26.
In the case of CGAUGACAGACCCUUUCUGTT against Slc2a8 it was inactive: -0.698; in that of GGACCUGCAUUCUAAAUCATT against Cxcl3, inactive: 1.39; in that of GGCAAAAGCAUUGUCUCUGTT against Armc9, inactive: -0.661.
Take GCAAUGUACUACCAAGAAUTT against Gbe1: the z-score was inactive: -1.33.
On to GCCCAUCUGAUGAAUACAATT against Mrto4, for which the z-score was inactive: 1.45.
In the case of GCUGCAUUUGUGCUACUUUTT against Ska2, the z-score is inactive: -0.603.
For the sequence GCUGAGUCUCAUCAAAGUCTT against Qtrt2, the z-score is inactive: -1.04.
Regarding CCACUACAGCAUUGUGACGTT against Enpp4, the z-score was inactive: -1.13.
In the case of GGCAGCAGAGAAGAAAGCCTT against Pld3 it was active: -3.16; in that of GGAGAUGGAGCAGGAAGAGTT against Klhl22, inactive: -0.419.
In the case of GGUGGAAGUUUUCAGUGGCTT against Csrnp1, the z-score was inactive: 0.727.
Consider GCUUAGAAUCUCUGGACAATT against Rnf168, for which the z-score was active: 3.21.
As for GGCAAACAGAGAGAAUACGTT against Il22ra1, the z-score is inactive: -1.04.
On to GGGUAUGAGCAUAAAAUAATT against Il16, for which the z-score was inactive: -1.2.
In the case of GGCAGACAACGUGUCACCUTT against Aldh1a3 it was inactive: -0.883; in that of GGGCCAUGCAAUCAUCAAGTT against Tlnrd1, inactive: 0.353; in that of CCCGGGAAUAAAUAAAGGCTT against Haglr, inactive: -0.308.
The result for CCGCUUUUGUCAAGUUUUCTT against Asap1 reads active: 2.65.
Turning to GGGACUGUAAUGUUGACACTT against Olfr560, the z-score is inactive: -0.863.
For CGGACUUGUUUUUUAGUCUTT against Tnrc18, the z-score is inactive: 0.164.
Take GAGAAACCUGCCUCAUCUCTT against Spata3: the z-score is inactive: -0.0842.
Consider GCCGUUUGGUUUCGAACUUTT against Mboat2, for which the z-score was inactive: 1.17.
Consider GCUUUGGAACCUCCGAAUGTT against Ddb2, for which the z-score is inactive: 1.05.
As for GGUAGACUUGAAGAAGUCATT against Mief1, the z-score was inactive: -0.538.
As for CCUAUCUCAUACCUACAUGTT against Resf1, the z-score is inactive: -0.979.
The result for UUUUUUCUGGUUCACUUCATT against Olfr177 reads inactive: 0.00452; that for GCAAACUCGGACUUUCAAATT against Lamtor3, inactive: 0.443; that for GGUGUAGGAAGAAUGUUUATT against Pfdn1, inactive: -0.448.
Regarding “GGUACGAGUGAUCGUACUUTT against 5330438I03Rik”, the z-score is inactive: 0.54.
Consider GGGUUUCUUACUGAAGAAATT against Mindy2, for which the z-score was inactive: -1.43.
In the case of GCCCAAUCAAAAAAUGGUGTT against Zyx, the z-score is inactive: -0.0505.
As for GGAGUAGCUGUUCUAAUUGTT against Scamp5, the z-score was inactive: -1.65.
In the case of CGUAGCUUAAUCUGGCAGATT against Aldh1a7 it was inactive: 0.0971.
For GCAGAGAUUUAUGAAGCAUTT against Tbp, the z-score was inactive: 0.274.
Consider CACUAGUUGCUGGUCUUACTT against Pdxdc1, for which the z-score was inactive: 0.167.
For the sequence GUAAAUCCAUCUCUCUAGCTT against Cyp3a16, the z-score is inactive: 1.54.
On to GGGAGUGAAUCAUUAUCUUTT against Tbl1xr1, for which the z-score is inactive: 0.203.
As for GGCCCAAAAACAGGUAAAGTT against Adrb1, the z-score was inactive: -0.129.
As to GGAACUGGAGAAGAAAUUUTT against Sp100, the z-score was inactive: 0.309.
Regarding GCAGCUAGUAUCCAGGCUATT against Ifrd1, the z-score was inactive: -0.776.
On to GGACUUCAUGACCACCUAUTT against Ctsf, for which the z-score is inactive: 0.136.
Consider CGAGGUGACCUACAAGAUUTT against Csdc2, for which the z-score is inactive: -0.582.
For the sequence “CUCAGGAAAUAGGCCCAGATT against A530064D06Rik”, the z-score is inactive: 1.18.
In the case of GGAUAUCAUUGUGCCCACUTT against Olfr920 it was inactive: -0.334.
On to GGAGAUAUCUGGUAUACCCTT against Bace2, for which the z-score is inactive: -0.386.
On to GGACAUGUGUGCAAAUCCATT against Slc35f3, for which the z-score is inactive: -0.8.
Turning to “GCAGACAGAAGAACACCAGTT against 1700024G13Rik”, the z-score was inactive: -0.177.
For the sequence GGGAGGAAGGAAGAGUAUUTT against Itga4, the z-score is inactive: -0.984.
With “GGAGGAAUUUCAAAUACUATT against A530032D15Rik”, the z-score was inactive: 0.853.
In the case of GCCCUCCUUAUAGCUUAAUTT against Asic3 it was active: -2.2; in that of GGCCUGCCAGAUAUGAAAATT against Ces2c, inactive: 1.97.
For GGUAAAAUACCUAAGAACCTT against Pnma2, the z-score was inactive: 1.52.
For the sequence GGGACUGUCUCCAAGACUCTT against Nkx2-9, the z-score is inactive: 0.121.
With GGAAAGUGAUCCAGAAAUGTT against Olfr1026, the z-score is inactive: -0.781.
In the case of GGAUGGGUCCAUUGAGCCATT against Lrpap1, the z-score was inactive: -0.327.
As for CGAAGCUGGUUUACCAAAATT against Gna14, the z-score was inactive: -0.218.
As for GGUGCUUCCAACUUCACAGTT against Bcorl1, the z-score is inactive: -0.00398.
In the case of GGUAAUUAUGCUGCUUAUGTT against Phf20 it was inactive: -0.457; in that of GGCUUAAGUCUACCGAACUTT against Rpp25l, inactive: -1.41; in that of GGGUCAUCCACUUUGUCAGTT against Fam177a, inactive: -0.584.
In the case of GGAUCACCAGACCUUUUUCTT against St7l it was inactive: -1.94.
In the case of “GGUAUCCUGAGUUUCAGCCTT against E230015B07Rik” it was inactive: -1.15; in that of GCUGUGUGACCAGCUGUUGTT against Krtap9-1, inactive: 0.44.
Take GCGAAAUCCUGGGCUACUCTT against Dyrk4: the z-score is inactive: -0.32.
CCAAAGGUUACCAGGAAGCTT against Pcsk4: the z-score was inactive: 0.124.
Turning to GGAUCACUCUAAUUCAGAUTT against Fcamr, the z-score is inactive: 1.93.
As to GGGAUGUCAGCAAUCUAAATT against Pmfbp1, the z-score was inactive: -0.2.
The result for GGAAGACGUAAAGCUUUCUTT against Olfr1006 reads inactive: 0.593.
